{
  "source": "patent US10668059B2",
  "about": "“Compositions and methods for the prevention and treatment of mast cell-induced vascular leakage” (Duke University, priority 2012, dated 2020)",
  "key": {"MCPT1": {"test_system": "MCPT1", "assay": "Serum ELISA for MCPT1 in DENV-infected mice", "format": "in vivo", "details": "treated versus untreated, pooled serum"}, "DENV": {"test_system": "DENV", "assay": "Plaque forming units in pooled serum of DENV-infected AG129 mice", "format": "in vivo", "details": "i.p. 2×10^6 pfu Eden2, cromolyn 3 mg/mouse/day i.p. from day 1, day 3"}},
  "note": "For at least one compound, name, drawing or mass did not settle the structure.",
  "data": [
    {"smiles": "O=C(O)c1cc(=O)c2c(OCC(O)COc3cccc4oc(C(=O)O)cc(=O)c34)cccc2o1", "note": "[cromolyn]", "values": [
      {"measurement": "serum MCPT1 level at 24 hr", "setting": "MCPT1; 24 hr", "result": "reduced"},
      {"measurement": "serum MCPT1 level at 48 hr", "setting": "MCPT1; 48 hr", "result": "undetectable"},
      {"measurement": "plaque forming units in pooled serum compared to infection alone", "setting": "DENV", "result": "significant increase"}
    ]}
  ]
}
